# Patent publication US20110206689A1, “Molecular Determinants Associated With Prostate Cancer And Methods Of Use Thereof” (Dana-Farber Cancer Institute, Inc., priority 2010, published 2011)
# Amino acid sequences for entries named in this document (tags omitted).
# UniProt P31749: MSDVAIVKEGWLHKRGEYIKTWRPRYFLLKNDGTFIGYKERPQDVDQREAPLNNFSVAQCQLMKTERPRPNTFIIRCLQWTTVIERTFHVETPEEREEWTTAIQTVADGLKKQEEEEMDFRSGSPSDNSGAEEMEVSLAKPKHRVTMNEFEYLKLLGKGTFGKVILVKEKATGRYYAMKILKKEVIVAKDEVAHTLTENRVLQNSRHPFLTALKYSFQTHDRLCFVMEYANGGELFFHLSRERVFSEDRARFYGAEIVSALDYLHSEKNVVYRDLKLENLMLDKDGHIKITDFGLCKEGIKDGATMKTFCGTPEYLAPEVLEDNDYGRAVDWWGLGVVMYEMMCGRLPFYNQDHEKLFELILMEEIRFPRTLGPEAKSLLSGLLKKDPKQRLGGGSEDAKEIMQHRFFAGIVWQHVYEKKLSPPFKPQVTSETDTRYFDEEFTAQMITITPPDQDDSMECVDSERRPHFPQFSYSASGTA
# These are yes or no findings as the source states them, for the method shown. Binding seen in cells or lysates may run through a third protein. Some results given as binding are weak or reduced against the parent protein; the word gives no strength. Sequences can lack the tags named with a protein.
# Target: AKT1 (UniProt P31749)
# Test: co-immunoprecipitation (anti-Flag and anti-AKT) with immunoblot
binder,measurement,value
"Flag-tagged thymidine kinase 1 (TK1) (enzyme, human, UniProt P04183 1-234, looked up) MSCINLPTVLPGSPSKTRGQIQVILGPMFSGKSTELMRRVRRFQIAQYKCLVIKYAKDTRYSSSFCTHDRNTMEALPACLLRDVAQEALGVAVIGIDEGQFFPDIVEFCEAMANAGKTVIVAALDGTFQRKPFGAILNLVPLAESVVKLTAVCMECFREAAYTKRLGTEKEVEVIGGADKYHSVCRLCYFKKASGQPAGPDNKENCPVPGKPGEAVAARKLFAPQQILQCSPAN",binding,binds
